## Percent effect of library compounds

Data taken from ChEMBL document CHEMBL3988442, “University of Dundee, Small-Polar-MMV Screening Library” (2021).

Toxoplasma: 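Assay of Toxoplasma gondii numbers, read through their beta-galactosidase reporter with a colour substrate. Concentration: 10 µM. The record gives no direction; the compounds picked for IC50 retests had high values, so higher reads as fewer parasites. About 67,000 compounds were tested under these conditions; 0.38% (about 260) showed 50% or more at least once.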
T. brucei: 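Whole-parasite assay of Trypanosoma brucei over 72 hours; the read-out is not stated. Compounds at 30 µM. Higher reads as stronger inhibition (inferred: compounds with an IC50 in retests scored well above the rest). Values scatter widely below zero; nearly all retest evidence comes from the higher of the two concentrations used. Size under these conditions: about 64,000 compounds, about 940 of them at 50% or above in at least one test.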
Leishmania in macrophages: 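Cell assay of Leishmania donovani living inside macrophages; the read-out is not stated. Tested at 30 µM. Direction is inferred from retests: higher values go with stronger inhibition. Size under these conditions: about 69,000 compounds, about 1,000 of them at 50% or above in at least one test.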

Values are the deposited “Percent Effect”, in %.
How 0% and 100% were set is not recorded. Most values in the screen are low, and negative values occur.
This is an unselected part of the compounds tested.
Two or more numbers in one place are separate tests of the same structure; such repeats can differ widely.

- O=C(c1csc(-c2ncccn2)n1)N1CCN(C2CCCC2)CC1 | Toxoplasma: 0.059%; T. brucei: -8.283%; Leishmania in macrophages: 15.8%
- Cc1ccc(C2CN(Cc3cccc4[nH]ccc34)CCO2)nc1 (centres undefined) | Toxoplasma: 29.61%; T. brucei: 1.106%; Leishmania in macrophages: 0.4294%
- O=C(O)C(F)(F)F.O=C(O)C(F)(F)F.c1cncc(OCc2noc3c2CN(Cc2ccsc2)CC3)c1 | Toxoplasma: -15.24%; T. brucei: -15.24%; Leishmania in macrophages: 2.311%
- Cc1cnn(CCNCc2cc(C)no2)c1 | Toxoplasma: -12.67%; T. brucei: -34.87%; Leishmania in macrophages: -26.17%
- CCCc1nc(N2CCC(CCO)CC2)c2cnn(C)c2n1 | Toxoplasma: -48.38%; T. brucei: -25.37%; Leishmania in macrophages: 8.718%
- [H][C@@]12CCN(C[C@@H]1CC)[C@@H](CNCc1cccc(C#N)c1)C2 | Toxoplasma: -4.865%; T. brucei: -49.17%; Leishmania in macrophages: 1.742%
- COC(=O)CC(NC(=O)c1ccc(OC)cc1OC)c1cccs1 (centres undefined) | Toxoplasma: -7.003%; T. brucei: -15.23%; Leishmania in macrophages: 14.5%
- Cc1cnn(CCNCc2csc(-c3ccc(C)o3)n2)c1 | Toxoplasma: 9.094%; T. brucei: -4.521%; Leishmania in macrophages: 7.195%
- CC(C)(C)c1ncc(C(=O)NCCNC(=O)c2ccccc2)s1 | Toxoplasma: -3.202%; T. brucei: 18.97%; Leishmania in macrophages: 18.59%
- [H][C@]12CC[C@]([H])(CN(C3Cc4ccccc4C3)C1)N(C(=O)C1CCOCC1)C2 | Toxoplasma: -15.36%; T. brucei: -39.41%; Leishmania in macrophages: 6.242%
- O=C(c1cnc2c(cnn2C2CCCC2)c1)N1CCCSCC1 | Toxoplasma: 7.271%; T. brucei: 19.68%; Leishmania in macrophages: 6.155%
- Cc1cccc(N2N=C(C(=O)NC(C)Cn3cccn3)CCC2=O)c1 (centres undefined) | Toxoplasma: 11.6%; T. brucei: -12.49%; Leishmania in macrophages: 6.28%
- [H][C@]12CC[C@]([H])(CN(C(C)=O)C1)N(C(=O)c1cccnc1SC)C2 | Toxoplasma: -9.57%; T. brucei: -24.43%; Leishmania in macrophages: 4.598%
- CCn1c(-c2ccccc2)nn(CC(=O)NCCc2ccc(C)o2)c1=O | Toxoplasma: 0.7476%; T. brucei: 17.04%; Leishmania in macrophages: 36.82%
- CN(C)C(=O)C1CCCN(C(=O)c2ccccc2-n2cc(CN)cn2)C1 (centres undefined) | Leishmania in macrophages: 14.32%
- Cc1nc(CN(C)Cc2cc3c(cc2OC(F)F)OCO3)oc1C | Toxoplasma: 4.969%; T. brucei: -8.485%; Leishmania in macrophages: 16.89% & -22.03%
- Cc1csc(C2CCCCN2C(=O)c2cn[nH]c2C)n1 (centres undefined) | Toxoplasma: -19.09%; Leishmania in macrophages: -4.034%
- Cc1cc(CN2CCCC(CNC(=O)Cn3cccn3)C2)oc1C (centres undefined) | Toxoplasma: -2.837%; T. brucei: -85.09%; Leishmania in macrophages: 13.15%
- COCCNC(=O)c1cc(C(C)C)nc(N2CCCC2)n1 | Toxoplasma: 4.512%; T. brucei: -18.28%; Leishmania in macrophages: -70.28%
- Cc1cc(C(=O)N2CCN(c3nc4c(F)cccc4s3)CC2)no1 | Toxoplasma: 12.61%; T. brucei: -37.52%; Leishmania in macrophages: -5.518%
- [H][C@]12CN(C(=O)NCc3ccccc3)CCN1C(=O)N(CCOC)C2 | Toxoplasma: -2.96%; T. brucei: -17.34%; Leishmania in macrophages: 6.113%
- Cc1ccc(C)c(OC2CCN(C(=O)NCC(=O)N3CCCC3)CC2)c1 | Toxoplasma: -4.993%; T. brucei: -33.31%; Leishmania in macrophages: 19.38%
- CCNC(=O)NC[C@H]1COCc2nc3cc(C)ccc3n21 | Toxoplasma: 4.978%; T. brucei: 32.27%; Leishmania in macrophages: 12.32%
- CN(C)Cc1nc(C2(NC(=O)Nc3ccccc3)CCCC2)no1 | Toxoplasma: 7.04%; T. brucei: -13.97%; Leishmania in macrophages: 6.946%
- Cc1ncncc1C(=O)NCCn1nc2ccccn2c1=O | Toxoplasma: 8.93%; Leishmania in macrophages: 0.7745%
- [H][C@]12CN(CCOC)C(=O)[C@@]1([H])CN(c1cnccn1)C2 | Toxoplasma: 9.545%; T. brucei: -40.9%; Leishmania in macrophages: 25.21%
- CC(C)c1cc(CN(C)C(=O)CN2CCNC2=O)no1 | Toxoplasma: 14.34%; T. brucei: -26.52%; Leishmania in macrophages: 13.5%
- CN(c1ccncn1)C1CC2(CCN(C(=O)c3cccn3C)C2)C1 (centres undefined) | Toxoplasma: 6.234%; T. brucei: -19.1%; Leishmania in macrophages: 5.913% & -12.05%
- CCn1cc(N2Cc3nc(N4CCC(C)CC4)ncc3C2=O)cn1 | Toxoplasma: -0.4714%; T. brucei: -21.22%; Leishmania in macrophages: -13%
- CCOCCCNc1cc(C)nn2cnnc12 | Toxoplasma: 66.33%; T. brucei: -22.51%; Leishmania in macrophages: -60.41%
- O=C(CSc1ccc2c(c1)OCCO2)NS(=O)(=O)c1cccnc1 | Toxoplasma: 1.548%; T. brucei: -24.57%; Leishmania in macrophages: 20.86%
- COc1ccccc1CCNC(=O)NC(C)COCC(F)(F)F (centres undefined) | Toxoplasma: 2.21%; T. brucei: -42.47%; Leishmania in macrophages: 11.2%
- Cc1nn(C)c(N(C)C)c1CNCC(O)COc1cccc(F)c1 (centres undefined) | Toxoplasma: -9.295%; T. brucei: -19.31%; Leishmania in macrophages: 15.05%
- CS(=O)(=O)c1cccc(C(=O)NCCCN2CCc3ccccc3C2)c1 | Toxoplasma: 3.343%; T. brucei: 2.614%; Leishmania in macrophages: 17.87%
- O=C(c1coc2ccccc12)N1CCS(=O)(=O)CC1 | Toxoplasma: -3.539%; T. brucei: -19.82%; Leishmania in macrophages: 14.95%
- CC(C)NC(=O)N1Cc2nccn2CC(CN2CCCC2)C1.O=C(O)C(F)(F)F (centres undefined) | Toxoplasma: -3.3%; T. brucei: -23.8%; Leishmania in macrophages: 23.48%
- O=C(O)C(F)(F)F.O=C(O)C(F)(F)F.[H][C@]12CCC[C@@]1(COCc1csc(C)n1)CN(Cc1cccc(C)n1)C2 | Toxoplasma: 12.79%; T. brucei: 1.231%; Leishmania in macrophages: 19.57%
- O=C(c1ccc(-n2cccn2)cc1Cl)N1CCCC(O)(CO)C1 (centres undefined) | Toxoplasma: 2.05%; T. brucei: -50.08%; Leishmania in macrophages: 7.721%
- COCC1c2c(cnn2C)CCN1Cc1ccco1.O=C(O)C(F)(F)F.O=C(O)C(F)(F)F (centres undefined) | Toxoplasma: 10.45%; T. brucei: -41.24%; Leishmania in macrophages: 9.687%

The first 2 entries again:

* O=C(c1csc(-c2ncccn2)n1)N1CCN(C2CCCC2)CC1 : Toxoplasma: 0.059%; T. brucei: -8.283%; Leishmania in macrophages: 15.8%
* Cc1ccc(C2CN(Cc3cccc4[nH]ccc34)CCO2)nc1 (centres undefined) : Toxoplasma: 29.61%; T. brucei: 1.106%; Leishmania in macrophages: 0.4294%